Among the data in article PMC4432624, “Prdx4 is a compartment-specific H2O2 sensor that regulates neurogenesis by controlling surface expression of GDE2” (Nature Communications, 2015) are binding values, retold here.

No constants are given. Whether binding was seen depends on the method and setting. In cells and extracts the contact can be indirect. A result given as binding can be weak or reduced; the word gives no strength. Where a sequence is shown, tags or fusion partners need not be part of it.

For this assay, the target named is T1, chick GDE2, FLAG-tagged (chick) (UniProt Q3KTM2).
T1 sequence: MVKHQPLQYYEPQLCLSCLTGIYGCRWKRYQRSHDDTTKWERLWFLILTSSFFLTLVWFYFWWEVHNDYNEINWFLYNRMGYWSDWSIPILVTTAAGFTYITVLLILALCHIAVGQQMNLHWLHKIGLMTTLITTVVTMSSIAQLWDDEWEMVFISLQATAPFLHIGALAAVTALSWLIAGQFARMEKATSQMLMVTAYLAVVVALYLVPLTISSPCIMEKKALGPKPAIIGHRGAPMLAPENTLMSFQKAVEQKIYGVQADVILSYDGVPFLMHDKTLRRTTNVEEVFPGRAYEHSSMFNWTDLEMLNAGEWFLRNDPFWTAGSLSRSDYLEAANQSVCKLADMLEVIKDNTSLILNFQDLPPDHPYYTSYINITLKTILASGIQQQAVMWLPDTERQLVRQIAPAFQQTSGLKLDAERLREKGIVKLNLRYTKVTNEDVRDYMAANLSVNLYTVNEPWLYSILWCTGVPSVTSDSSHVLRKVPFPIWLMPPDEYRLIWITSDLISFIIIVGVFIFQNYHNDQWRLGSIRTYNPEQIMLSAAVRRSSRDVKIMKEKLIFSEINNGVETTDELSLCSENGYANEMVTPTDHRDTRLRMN
Put plainly: co-IP; extracts of transfected HEK293T cells; FLAG-tagged GDE2 and HA-tagged Prdx4 forms; anti-FLAG M2 Affinity gel or antibodies with GammaBind G sepharose; 100 mM maleimide included; eluted in non-reducing sample buffer.

In the case of “chick Prdx4, three HA tags on the N terminus (enzyme)”, the binding entry is listed as “binds”.
